From PubChem BioAssay AID2685 (National Center for Advancing Translational Sciences (NCATS), 2010)
Some of the results follow. The main result of the screen is listed elsewhere. These columns were measured beside it and carry no call. Most of these compounds were active or inconclusive in the main read-out, so they are no random draw. Words in brackets tell the shape of the fitted curve; partial curves, single points and poor fits give uncertain potencies.

Assay: qHTS Assay for Lipid Storage Modulators in Drosophila S3 Cells;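 as to cell number change: cells counted by Cell Tracker Red CMTPX staining in the red channel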
Conditions: BODIPY lipid droplet fluorescence, 18-24 h; for cell number change: measured here: cell count max response, cells fed with added oleic acid
In short: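 Drosophila S3 cells loaded with oleic acid (400 uM, as added) and compounds at several concentrations; lipid droplets imaged by 488-nm laser-scanning cytometry, 500–530 nm intensity and object ratio to cell channel. Percent activity normalized to 20 uM Triacsin C.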

[1] = measured here: lipid fluorescence (Fed channel) AC50, cells fed with added oleic acid
[2] = measured here: cell number channel AC50, cells fed with added oleic acid

SMILES	cell number change	AC50 [1]	AC50 [2]
O=C(CCS(=O)(=O)c1cccc2nonc12)NCCc1ccccc1	4.87%	20.6 µM [rising, partial curve]	
Clc1ccc(-c2cc(-c3ccccc3)on2)cc1	-0.656%	9.2 µM [rising, partial curve]	
CC1CCC(NC(=O)c2nc(Cn3ccc([N+](=O)[O-])n3)no2)CC1 (stereo not drawn)	-5.71%	29.1 µM [rising, partial curve]	
C=CCNC(=O)c1cc(-c2ccncc2)nc2c(C)cc(C)cc12	0.926%	2.82 µM [rising, partial curve]	
CCC(OC(=O)CCc1nc2ccccc2[nH]c1=O)C(=O)c1ccccc1 (stereo not drawn)	-10.3%		
Cc1nnc(SCC2=C(C(=O)O)N3C(=O)C(NC(=O)C(C)n4nc(C(F)(F)F)cc4C)C3SC2)s1 (stereo not drawn)	29.9%	29.1 µM [rising, single point]	
CCOc1ccc(NC(=O)CSc2nnc(-c3ccccc3Cl)n2Cc2ccco2)cc1	-10.3%		
Cc1nc2c(sc3nc4c(cc32)COC(C)(C)C4)c(=O)n1CC(=O)NCc1ccco1	-8.19%	3.66 µM [rising, full curve, poor fit]	
CC(Sc1nnc2c(n1)[nH]c1ccccc12)C(=O)N(C)C1CCCCC1 (stereo not drawn)	8.82%	6.51 µM [falling, single point]	
O=C(c1cccs1)N1N=C(c2ccccc2)CC1c1ccccc1O (stereo not drawn)	-29.7%	13 µM [falling, partial curve]	
COC(=O)c1cn(C(=O)c2ccc(C)c(C)c2)c2ccccc12	-6.26%		0.461 µM [rising, full curve, poor fit]
COC(=O)c1cc(C(=O)Nc2cc(C)on2)cc([N+](=O)[O-])c1	13.8%		
O=C1NCC(NC(=O)C(F)(F)F)c2cc3c(cc21)OCO3 (stereo not drawn)	8.29%		6.51 µM [rising, single point]
O=C(CSc1nnc(CNC(=O)c2cccs2)o1)Nc1ccc(F)cc1F	12.5%		6.51 µM [rising, single point]
COc1cc(/C=C/C(=O)c2ccc([N+](=O)[O-])o2)ccc1O		2.06 µM [falling, full curve]	2.06 µM [falling, partial curve]
COc1ccc(CCNC(=O)c2cc(S(=O)(=O)N(C)C)ccc2N2CCCC2)cc1OC	-14.9%	0.103 µM [falling, full curve, poor fit]	
CCC(C)NC(=O)Cc1cn(C)c2ccccc12 (stereo not drawn)	-11.2%		
COC(=O)N/N=C/c1ccc(-c2ccccc2Cl)o1	19.2%	0.0231 µM [rising, full curve]	
CCCCC(=O)Nc1cc([N+](=O)[O-])ccc1Cl	-11.6%	29.1 µM [rising, single point]	
CCOc1ccc(CCNC(=O)COC(=O)c2cccc(S(=O)(=O)N3CCCC3)c2)cc1OCC	-67%	29.1 µM [falling, single point]	29.1 µM [falling, single point]

A different layout for two compounds above:
CCC(OC(=O)CCc1nc2ccccc2[nH]c1=O)C(=O)c1ccccc1 (stereo not drawn)
  cell number change: -10.3%
O=C1NCC(NC(=O)C(F)(F)F)c2cc3c(cc21)OCO3 (stereo not drawn)
  cell number change: 8.29%
  AC50 [2]: 6.51 µM [rising, single point]

The list goes on.

SMILES	cell number change	AC50 [1]	AC50 [2]
O=C(CN1C(=O)C2C3C=CC(C3)C2C1=O)Nc1nc(-c2ccccn2)cs1 (stereo not drawn)		0.231 µM [rising, full curve, poor fit]	0.82 µM [rising, full curve, poor fit]
O=C1C(Nc2ccc(O)cc2)=C/C(=N/S(=O)(=O)c2cccs2)c2ccccc21	-45.4%	3.26 µM [falling, partial curve]	
O=CN1CCN(C(C(=O)NC2CCCC2)c2cc3c(cc2[N+](=O)[O-])OCO3)CC1 (stereo not drawn)		6.51 µM [rising, partial curve]	6.51 µM [rising, partial curve]
O=S(=O)(Cc1ccccc1)NCC1CCCO1 (stereo not drawn)	-7.94%	6.51 µM [rising, partial curve]	
O=C(c1c[nH]c(C(=O)C(Cl)(Cl)Cl)c1)c1c(F)cccc1F	-54.3%	7.31 µM [falling, partial curve]	8.2 µM [falling, partial curve]
OC(COc1ccccc1)CN1CCC(Cc2ccccc2)CC1 (stereo not drawn)	-10.6%		
CNc1cc([N+](=O)[O-])ccc1N/C=C/C(=O)c1ccc2c(c1)OCO2	-17.3%		0.00411 µM [rising, full curve, poor fit]
COc1ccc(S(N)(=O)=O)cc1C(=O)N(C)CC(=O)Nc1ccc(N2CCOCC2)cc1	-2.08%		
COC(=O)CN1C(=O)C(O)(CC(=O)c2ccc(C)cc2)c2ccccc21 (stereo not drawn)	-10.4%	0.517 µM [falling, full curve]	
CCn1c(N2CCN(S(=O)(=O)c3ccc(F)cc3)CC2)nc2ccccc21	-14%	32.6 µM [falling, single point]	
CCOC(=O)C1=C(C)NC(=O)NC1/C=C\c1ccccc1 (stereo not drawn)	9.82%	6.51 µM [rising, single point]	
Cc1ccc2c(CN3CCCCC3)cc(=O)oc2c1	-2.48%	25.9 µM [rising, partial curve, poor fit]	
CN1C(=O)[C@@H]2[C@H](C1=O)[C@@H]1C(=O)Nc3ccccc3C(=O)N1[C@@H]2c1cccc(Br)c1	16%	23.1 µM [rising, single point]	
CCOC(=O)/C=C1\SCC(=O)N1CC(=O)NC(C)c1ccc(F)cc1 (stereo not drawn)	15.7%	16.4 µM [rising, partial curve, poor fit]	
O=C(NC1CCCCC1)c1ccccc1NC(=O)C1CC(=O)N(c2ccccc2)C1 (stereo not drawn)	-28.2%	29.1 µM [falling, single point]	
CCOC(=O)c1cnc2ccc(C)cc2c1N(C)Cc1ccccc1	-53.1%	1.03 µM [falling, full curve]	20.6 µM [falling, single point]
COc1ccc(NC(=S)NCc2ccco2)cc1	-2.45%		
CCOc1ccc(N2CC(C(=O)N3CCc4ccccc4C3)CC2=O)cc1 (stereo not drawn)	7.57%	29.1 µM [falling, single point]	
Cn1c(-c2ccccc2)cnc1NCc1ccc(-c2ccccc2)cc1	12.3%		
